Experimental data published in the supplement of paper PMC10849652.
The other results are listed elsewhere or left out. Residues, ends and D or L forms follow the SMILES beside them. *: point of attachment. Cbz = O=C(OCc1ccccc1)*

By UniProt entry, the sequences of proteins in these tests, tags left out. Where a name states a change or a piece, a line headed by the entry shows the natural chain unless it says otherwise.
UniProt Q8TA86: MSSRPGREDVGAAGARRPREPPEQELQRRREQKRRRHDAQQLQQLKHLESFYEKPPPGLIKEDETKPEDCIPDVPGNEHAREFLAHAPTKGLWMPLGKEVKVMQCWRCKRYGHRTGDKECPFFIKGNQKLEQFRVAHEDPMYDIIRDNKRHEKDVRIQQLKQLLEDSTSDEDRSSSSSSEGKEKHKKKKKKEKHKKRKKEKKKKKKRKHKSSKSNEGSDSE
UniProt Q9BUL9: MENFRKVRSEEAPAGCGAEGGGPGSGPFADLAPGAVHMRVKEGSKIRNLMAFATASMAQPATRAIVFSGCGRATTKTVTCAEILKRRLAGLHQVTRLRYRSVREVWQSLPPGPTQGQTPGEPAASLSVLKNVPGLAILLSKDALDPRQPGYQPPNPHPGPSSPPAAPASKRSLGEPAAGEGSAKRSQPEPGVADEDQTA
UniProt P23921: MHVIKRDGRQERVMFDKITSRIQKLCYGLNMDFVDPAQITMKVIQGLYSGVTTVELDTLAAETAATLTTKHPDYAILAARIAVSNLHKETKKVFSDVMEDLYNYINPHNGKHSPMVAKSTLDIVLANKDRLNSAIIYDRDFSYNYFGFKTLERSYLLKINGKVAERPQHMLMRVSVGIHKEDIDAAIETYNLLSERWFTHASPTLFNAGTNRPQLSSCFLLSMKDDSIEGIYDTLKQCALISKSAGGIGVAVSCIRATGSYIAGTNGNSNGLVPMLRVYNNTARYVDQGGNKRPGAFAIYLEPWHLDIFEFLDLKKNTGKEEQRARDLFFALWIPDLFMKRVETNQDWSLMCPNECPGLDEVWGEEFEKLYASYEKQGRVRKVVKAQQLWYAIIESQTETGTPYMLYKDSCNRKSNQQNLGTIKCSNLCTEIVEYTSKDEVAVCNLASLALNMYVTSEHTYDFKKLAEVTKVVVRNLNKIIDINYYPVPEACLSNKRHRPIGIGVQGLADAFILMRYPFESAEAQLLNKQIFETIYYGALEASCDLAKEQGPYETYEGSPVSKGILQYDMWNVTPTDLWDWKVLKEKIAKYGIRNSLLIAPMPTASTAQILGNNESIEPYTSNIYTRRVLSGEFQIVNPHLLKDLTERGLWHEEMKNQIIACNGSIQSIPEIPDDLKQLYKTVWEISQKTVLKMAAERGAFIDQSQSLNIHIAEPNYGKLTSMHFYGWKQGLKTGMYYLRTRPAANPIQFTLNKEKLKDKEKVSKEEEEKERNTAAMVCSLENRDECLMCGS
UniProt P15927: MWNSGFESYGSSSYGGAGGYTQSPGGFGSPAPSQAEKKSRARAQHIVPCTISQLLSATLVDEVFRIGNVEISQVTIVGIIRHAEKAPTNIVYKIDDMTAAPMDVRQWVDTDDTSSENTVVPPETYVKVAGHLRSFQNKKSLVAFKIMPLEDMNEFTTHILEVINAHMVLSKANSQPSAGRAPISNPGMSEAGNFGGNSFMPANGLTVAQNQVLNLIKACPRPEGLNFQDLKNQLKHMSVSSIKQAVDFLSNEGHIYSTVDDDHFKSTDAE
UniProt Q96S38: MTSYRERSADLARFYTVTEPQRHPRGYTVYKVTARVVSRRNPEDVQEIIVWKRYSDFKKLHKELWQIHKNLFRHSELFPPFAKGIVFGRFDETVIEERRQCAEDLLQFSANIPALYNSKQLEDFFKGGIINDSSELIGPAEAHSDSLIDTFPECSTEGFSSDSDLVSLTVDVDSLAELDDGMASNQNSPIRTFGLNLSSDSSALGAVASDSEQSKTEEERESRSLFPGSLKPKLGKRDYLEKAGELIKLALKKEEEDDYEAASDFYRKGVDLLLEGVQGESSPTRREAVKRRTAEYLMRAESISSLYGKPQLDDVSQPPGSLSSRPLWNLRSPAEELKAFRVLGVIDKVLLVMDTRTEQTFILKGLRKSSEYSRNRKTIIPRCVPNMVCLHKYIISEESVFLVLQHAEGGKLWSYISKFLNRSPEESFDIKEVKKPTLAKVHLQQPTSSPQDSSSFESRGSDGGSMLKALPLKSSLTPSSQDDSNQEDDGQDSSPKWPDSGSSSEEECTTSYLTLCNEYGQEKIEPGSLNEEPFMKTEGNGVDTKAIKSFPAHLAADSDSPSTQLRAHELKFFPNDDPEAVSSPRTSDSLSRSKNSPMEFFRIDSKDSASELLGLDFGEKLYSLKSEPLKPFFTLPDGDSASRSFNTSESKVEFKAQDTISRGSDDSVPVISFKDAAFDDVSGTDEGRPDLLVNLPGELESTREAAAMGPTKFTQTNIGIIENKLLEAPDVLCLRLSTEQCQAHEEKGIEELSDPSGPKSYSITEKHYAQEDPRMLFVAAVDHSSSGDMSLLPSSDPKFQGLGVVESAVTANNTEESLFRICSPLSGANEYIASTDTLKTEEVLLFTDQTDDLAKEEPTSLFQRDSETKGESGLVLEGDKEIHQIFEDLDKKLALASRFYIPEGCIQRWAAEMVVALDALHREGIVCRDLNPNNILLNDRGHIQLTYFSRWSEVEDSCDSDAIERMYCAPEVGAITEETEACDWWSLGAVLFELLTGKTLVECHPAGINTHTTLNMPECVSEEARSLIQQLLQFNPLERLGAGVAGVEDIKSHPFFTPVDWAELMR
UniProt Q9UBF6, whole entry, looked up: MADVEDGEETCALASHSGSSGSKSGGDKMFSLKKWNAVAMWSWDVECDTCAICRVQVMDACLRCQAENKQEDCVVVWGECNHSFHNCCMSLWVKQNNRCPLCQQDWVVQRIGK

Key:
Assay in all cases: log2 fold change, soluble protein after heating vs DMSO (PISA); higher = thermal stabilisation; K562 cells, 10 uM, 30 min; active = over 0.2 and 3.5 SD of the protein, either way, in both replicates (recomputed)
[1] = compound: C#Cc1cccc(Nc2ncnc3cc(OCCOC)c(OCCOC)cc23)c1 [erlotinib]
Procedure, shortened: (§1)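 Quantification of soluble protein used TMTpro 16plex LC-MS/MS, with channel sums equalised. Samples were the supernatant after 21,000xg for 90 min of pooled aliquots from K562 cells (2×10^6 cells/mL) treated with 10 μM compound for 30 min, heated for 3 min over 48°C-58°C, and extracted in PBS with 0.5% NP-40 at 4°C. Values, from duplicates, describe thermal stability against control samples on a log2 fold-change scale.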

[2] = compound: C/C(=N\NC(=O)C1=CC(=CC=C1)S(=O)(=O)N2CCOCC2)/C3=C(C=CC(=C3)Cl)O
Procedure, shortened: as §1

[3] = compound: C1=CC(=C(C=C1Cl)C2=NC3=NC=CN=C3C(=N2)NC4=CC=NC=C4)F
Procedure, shortened: as §1

[4] = compound: C1=CC(=CC=C1C2=NC3=C(N2)C=C(C=C3)C(=O)N)OC4=CC=C(C=C4)Cl
Procedure, shortened: as §1

[5] = compound: C1=CC2=C(C=CC(=C2)/C=C\3/C(=O)NC(=NCC4=CC=CS4)S3)N=C1
Procedure, shortened: as §1

[6] = compound: C1=CC2=NC=CN=C2C=C1/C=C/3\C(=O)NC(=O)S3
Procedure, shortened: as §1

[7] = compound: C1=CC=C(C=C1)C2=NC(=C(N2)C3=CC=NC=C3)C4=CC(=C(C=C4)Cl)O
Procedure, shortened: as §1

[8] = compound: C1=CC=C2C(=C1)C3=NNC4=CC=CC(=C43)C2=O
Procedure, shortened: as §1

[9] = compound: C1CCN(C1)C(=O)NC2=CC=CC(=C2)NC3=NC=C(C(=N3)NCCC4=CN=CN4)Br
Procedure, shortened: as §1

[10] = compound: C1CN(CCC1(CC2=CC=C(C=C2)Cl)N)C3=NC=NC4=C3C=CN4
Procedure, shortened: as §1

[11] = compound: C1COCCN1CCN2C3=CC=CC=C3N=C2NC(=O)C4=CC(=CC=C4)[N+](=O)[O-] [IRAK-1-4 Inhibitor I]
Procedure, shortened: as §1

[12] = compound: C=CC(=O)N1CCC[C@@H](n2nc(-c3ccc(Oc4ccccc4)cc3)c3c(N)ncnc32)C1 [ibrutinib]
Procedure, shortened: as §1

[13] = compound: CC(=O)c1cnc2ccc(-c3cc(Cl)c(O)c(Cl)c3)nc2c1N[C@H]1CC[C@H](CN(C)C)CC1
Procedure, shortened: as §1

[14] = compound: CC(C)(C)Cn1c(N)nc2ccc(-c3[nH]c(C(C)(C)C)nc3-c3ccc(F)cc3)nc21 [ralimetinib]
Procedure, shortened: as §1

[15] = compound: CC(C)(O)CC(=O)NCCn1ccc2ncnc(Nc3ccc(Oc4cccc(C(F)(F)F)c4)c(Cl)c3)c21
Procedure, shortened: as §1

[16] = compound: CC(C)C1=C2N=C(C=C(N2N=C1)NCC3=CC=CC=C3)NCCCCCCN
Procedure, shortened: as §1

[17] = compound: CC(C)C[C@@H](C=O)NC(=O)[C@H](CC(C)C)NC(=O)[C@H](CC(C)C)NC(=O)OCc1ccccc1
Procedure, shortened: as §1

[18] = compound: CC(C)N(C[C@H]1O[C@@H](n2cnc3c(N)ncnc32)[C@H](O)[C@@H]1O)[C@H]1C[C@@H](CCc2nc3cc(C(C)(C)C)ccc3[nH]2)C1 [pinometostat]
Procedure, shortened: as §1

[19] = compound: CC1=C(C(CC(=O)N1)C2=CC=C(C=C2)C(F)(F)F)C(=O)NC3=C(C=C4C(=C3)C=NN4)F
Procedure, shortened: as §1

[20] = compound: CC1=C(C2=C(C=C1)C(=O)C3=CC=CC=C3N2CCCN)C
Procedure, shortened: as §1

Measured: log2 fold change

RP9 (UniProt Q8TA86)
inactive: [1] -0.081 | [2] -0.067 | [3] -0.189 | [4] 0.162 | [5] 0.152 | [6] -0.045 | [7] -0.13 | [8] -0.102 | [9] -0.086 | [10] -0.048 | [11] -0.075 | [12] 0.087 | [13] 0.039 | [14] 0.076 | [15] 0.073 | [16] -0.212 | [17] 0.161 | [18] 0.162 | [19] -0.011 | [20] -0.068

RPL37A (UniProt P61513)
inactive: [1] -0.611 | [2] -0.28 | [3] -0.986 | [4] 0.128 | [5] -0.087 | [6] -0.098 | [7] -0.078 | [8] 0.047 | [9] 0.016 | [10] -0.374 | [11] -0.313 | [12] 0.175 | [13] 0.294 | [14] 0.309 | [15] 0.026 | [16] 0.032 | [17] 0.214 | [18] 0.381 | [19] 0.15 | [20] -0.955

RPL36AL (UniProt Q969Q0)
inactive: [1] -0.092 | [2] -0.165 | [3] -0.347 | [4] -0.012 | [5] -0.3 | [6] -0.018 | [7] 0.073 | [8] 0.018 | [9] 0.022 | [10] -0.21 | [11] -0.477 | [12] 0.038 | [13] 0.24 | [14] 0.497 | [15] 0.037 | [16] 0.062 | [17] -0.001 | [18] 0 | [19] 0.095 | [20] -0.684

RPP25 (UniProt Q9BUL9)
inactive: [1] -0.024 | [2] -0.055 | [3] -0.006 | [4] 0.024 | [5] 0.005 | [6] -0.079 | [7] 0.03 | [8] -0.044 | [9] -0.046 | [10] -0.037 | [11] 0.015 | [12] 0.021 | [13] 0.023 | [14] 0.051 | [15] 0.006 | [16] -0.057 | [17] -0.039 | [18] 0.132 | [19] 0.086 | [20] -0.073

RRM1 (UniProt P23921)
inactive: [1] -0.018 | [2] 0 | [3] 0.048 | [4] 0.019 | [5] -0.017 | [6] 0.004 | [7] 0.006 | [8] 0.003 | [9] 0.015 | [10] 0.062 | [11] 0.029 | [12] 0.003 | [13] 0.004 | [14] -0.039 | [15] -0.121 | [16] 0.014 | [17] -0.002 | [18] -0.038 | [19] 0.007 | [20] 0.071

RPL8 (UniProt P62917)
inactive: [1] -0.595 | [2] -0.514 | [3] -1.06 | [4] 0.051 | [5] -0.456 | [6] -0.026 | [7] -0.165 | [8] 0.06 | [9] 0.084 | [10] -0.375 | [11] -0.236 | [12] 0.033 | [13] 0.215 | [14] 0.303 | [15] 0.122 | [16] -0.019 | [17] 0.272 | [18] 0.576 | [19] 0.078 | [20] -0.942

RPL19 (UniProt P84098)
inactive: [1] -0.303 | [2] -0.192 | [3] -0.792 | [4] 0 | [5] -0.208 | [6] -0.084 | [7] -0.12 | [8] 0.016 | [9] 0.016 | [10] -0.264 | [11] -0.148 | [12] 0.06 | [13] 0.144 | [14] 0.195 | [15] 0.158 | [16] -0.025 | [17] 0.157 | [18] 0.344 | [19] 0.068 | [20] -0.704

RPL24 (UniProt P83731)
inactive: [1] -0.221 | [2] -0.182 | [3] -0.661 | [4] 0.023 | [5] -0.203 | [6] -0.039 | [7] -0.062 | [8] 0.032 | [9] 0.071 | [10] -0.172 | [11] -0.176 | [12] 0.005 | [13] 0.188 | [14] 0.167 | [15] 0.004 | [16] -0.019 | [17] 0.147 | [18] 0.341 | [19] 0.111 | [20] -0.544

RPL36A (UniProt P83881)
inactive: [1] -0.15 | [2] -0.46 | [3] -0.515 | [4] 0.06 | [5] -0.133 | [6] -0.011 | [7] -0.104 | [8] -0.117 | [9] 0.086 | [10] -0.323 | [11] -0.203 | [12] 0.032 | [13] 0.123 | [14] 0.163 | [15] 0.363 | [16] 0.027 | [17] 0.203 | [18] 0.343 | [19] 0.02 | [20] -0.533

RPA2 isoform 3 (UniProt P15927)
inactive: [1] -0.017 | [2] -0.038 | [3] 0.061 | [4] -0.019 | [5] 0.087 | [6] 0 | [7] -0.107 | [8] -0.015 | [9] 0.052 | [10] -0.021 | [11] 0.023 | [12] 0.04 | [13] -0.003 | [14] -0.086 | [15] 0.014 | [16] 0.024 | [17] 0.094 | [18] -0.012 | [19] 0.111 | [20] 0.03

RPS15A (UniProt P62244)
inactive: [1] -0.174 | [2] -0.063 | [3] -0.538 | [4] 0.039 | [5] -0.115 | [6] -0.055 | [7] -0.055 | [8] 0.044 | [9] 0.075 | [10] -0.198 | [11] -0.122 | [12] 0.02 | [13] 0.181 | [14] 0.109 | [15] 0.012 | [16] -0.058 | [17] 0.109 | [18] 0.38 | [19] 0.057 | [20] -0.555

RPS6KC1 (UniProt Q96S38)
inactive: [1] 0.082 | [2] 0.035 | [3] 0.025 | [4] -0.017 | [5] 0.157 | [6] 0.031 | [7] 0.157 | [8] -0.156 | [9] -0.206 | [10] -0.048 | [11] 0.073 | [12] -0.015 | [13] -0.01 | [14] 0.009 | [15] -0.039 | [16] -0.149 | [17] -0.057 | [18] -0.079 | [19] -0.212 | [20] 0.022

RPL4 (UniProt P36578)
inactive: [1] -0.474 | [2] -0.345 | [3] -1.09 | [4] 0.084 | [5] -0.215 | [6] -0.064 | [7] -0.029 | [8] 0.041 | [9] -0.008 | [10] -0.483 | [11] -0.264 | [12] 0.081 | [13] 0.276 | [14] 0.319 | [15] 0.025 | [16] -0.047 | [17] 0.155 | [18] 0.549 | [19] 0.086 | [20] -1.09

Two neighbouring entries out of the list so far, quoted:
RPS15A (UniProt P62244)
inactive: [1] -0.174 | [2] -0.063 | [3] -0.538 | [4] 0.039 | [5] -0.115 | [6] -0.055 | [7] -0.055 | [8] 0.044 | [9] 0.075 | [10] -0.198 | [11] -0.122 | [12] 0.02 | [13] 0.181 | [14] 0.109 | [15] 0.012 | [16] -0.058 | [17] 0.109 | [18] 0.38 | [19] 0.057 | [20] -0.555

RPS6KC1 (UniProt Q96S38)
inactive: [1] 0.082 | [2] 0.035 | [3] 0.025 | [4] -0.017 | [5] 0.157 | [6] 0.031 | [7] 0.157 | [8] -0.156 | [9] -0.206 | [10] -0.048 | [11] 0.073 | [12] -0.015 | [13] -0.01 | [14] 0.009 | [15] -0.039 | [16] -0.149 | [17] -0.057 | [18] -0.079 | [19] -0.212 | [20] 0.022

The list goes on.

RNF7 (UniProt Q9UBF6)
inactive: [1] -0.001 | [2] 0.1 | [3] -0.046 | [4] -0.031 | [5] 0.019 | [6] 0.056 | [7] 0.034 | [8] -0.095 | [9] 0.022 | [10] 0.069 | [11] 0.092 | [12] 0.039 | [13] 0.018 | [14] -0.007 | [15] -0.031 | [16] 0.239 | [17] -0.028 | [18] -0.077 | [19] 0.118 | [20] 0.053

RPL3 (UniProt P39023)
inactive: [1] -0.538 | [2] -0.364 | [3] -1.15 | [4] 0.063 | [5] -0.197 | [6] -0.033 | [7] -0.117 | [8] 0.019 | [9] 0.056 | [10] -0.426 | [11] -0.314 | [12] 0.061 | [13] 0.265 | [14] 0.25 | [15] 0.067 | [16] -0.05 | [17] 0.173 | [18] 0.548 | [19] 0.095 | [20] -0.969
